The values below come from paper PMC9260857.

Sequences of proteins named here, by UniProt entry; tags and fusion partners are left off.
UniProt Q91V45: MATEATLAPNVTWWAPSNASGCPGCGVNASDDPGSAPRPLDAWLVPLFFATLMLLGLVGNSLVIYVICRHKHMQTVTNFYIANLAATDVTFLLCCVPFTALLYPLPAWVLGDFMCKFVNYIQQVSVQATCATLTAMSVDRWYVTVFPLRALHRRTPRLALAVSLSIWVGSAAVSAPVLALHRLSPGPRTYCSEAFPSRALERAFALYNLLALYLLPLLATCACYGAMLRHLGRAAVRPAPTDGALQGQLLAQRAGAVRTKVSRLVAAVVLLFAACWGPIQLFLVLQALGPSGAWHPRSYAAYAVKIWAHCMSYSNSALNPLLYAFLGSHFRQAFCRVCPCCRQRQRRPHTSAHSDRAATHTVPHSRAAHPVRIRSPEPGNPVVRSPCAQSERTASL
UniProt A0A140LI88: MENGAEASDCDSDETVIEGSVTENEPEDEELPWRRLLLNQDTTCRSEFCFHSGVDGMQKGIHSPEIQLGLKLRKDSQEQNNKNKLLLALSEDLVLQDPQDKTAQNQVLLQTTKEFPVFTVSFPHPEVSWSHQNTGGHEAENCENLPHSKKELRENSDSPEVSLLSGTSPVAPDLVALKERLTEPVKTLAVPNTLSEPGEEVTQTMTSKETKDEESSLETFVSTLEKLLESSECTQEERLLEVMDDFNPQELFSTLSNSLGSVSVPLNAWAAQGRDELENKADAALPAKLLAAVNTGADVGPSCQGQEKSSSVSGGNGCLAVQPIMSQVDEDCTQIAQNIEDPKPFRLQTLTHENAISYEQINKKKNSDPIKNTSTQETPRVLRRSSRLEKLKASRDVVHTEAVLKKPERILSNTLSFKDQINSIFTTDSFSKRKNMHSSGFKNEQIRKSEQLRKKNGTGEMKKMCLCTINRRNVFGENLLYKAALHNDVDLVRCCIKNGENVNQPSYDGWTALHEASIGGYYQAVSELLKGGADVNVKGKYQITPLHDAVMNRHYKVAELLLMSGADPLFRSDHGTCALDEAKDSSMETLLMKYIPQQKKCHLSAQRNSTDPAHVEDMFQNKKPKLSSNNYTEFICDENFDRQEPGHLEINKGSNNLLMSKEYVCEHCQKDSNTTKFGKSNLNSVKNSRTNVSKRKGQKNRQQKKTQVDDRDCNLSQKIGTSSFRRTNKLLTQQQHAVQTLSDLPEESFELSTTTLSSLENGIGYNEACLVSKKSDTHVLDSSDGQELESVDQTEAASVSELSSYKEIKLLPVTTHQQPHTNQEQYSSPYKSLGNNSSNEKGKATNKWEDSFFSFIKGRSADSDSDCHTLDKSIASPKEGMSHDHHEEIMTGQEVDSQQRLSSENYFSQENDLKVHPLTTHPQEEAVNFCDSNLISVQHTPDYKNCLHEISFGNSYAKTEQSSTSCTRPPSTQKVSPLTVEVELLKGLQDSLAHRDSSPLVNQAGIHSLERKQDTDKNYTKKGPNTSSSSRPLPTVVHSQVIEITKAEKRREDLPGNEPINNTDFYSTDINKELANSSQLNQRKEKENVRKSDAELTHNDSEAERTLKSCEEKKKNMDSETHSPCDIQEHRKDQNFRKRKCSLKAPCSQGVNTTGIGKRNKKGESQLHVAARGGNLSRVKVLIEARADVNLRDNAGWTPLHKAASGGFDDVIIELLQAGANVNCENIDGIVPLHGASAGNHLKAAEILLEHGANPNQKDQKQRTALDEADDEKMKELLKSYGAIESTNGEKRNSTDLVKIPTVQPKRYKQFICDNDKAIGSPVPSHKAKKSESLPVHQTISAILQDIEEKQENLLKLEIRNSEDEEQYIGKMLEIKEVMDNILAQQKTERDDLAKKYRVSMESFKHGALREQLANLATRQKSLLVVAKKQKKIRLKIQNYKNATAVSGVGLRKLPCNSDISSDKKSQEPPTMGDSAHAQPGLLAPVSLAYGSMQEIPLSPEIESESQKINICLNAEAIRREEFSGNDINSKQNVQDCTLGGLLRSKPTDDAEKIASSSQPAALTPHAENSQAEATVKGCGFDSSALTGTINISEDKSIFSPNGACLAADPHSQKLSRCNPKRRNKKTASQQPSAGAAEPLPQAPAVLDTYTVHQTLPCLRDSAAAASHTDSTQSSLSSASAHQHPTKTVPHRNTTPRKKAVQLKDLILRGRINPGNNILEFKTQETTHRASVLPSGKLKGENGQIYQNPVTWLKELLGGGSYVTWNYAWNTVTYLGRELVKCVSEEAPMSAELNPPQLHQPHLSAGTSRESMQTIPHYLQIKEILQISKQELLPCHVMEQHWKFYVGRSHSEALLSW

Results are given in words; binding and its absence hold for the method and conditions named. Binding seen in cells or lysates may run through a third protein. Some entries that bind do so weakly or less than the wild type.

Experiment [1] concerns the target KISS1 receptor (mouse (endogenous in primary Leydig cells)) (UniProt Q91V45). Briefly: co-IP; 500 ug of RIPA lysate of murine primary Leydig cells (untreated, or treated with Kp-10 0.1 uM alone or with Kp-234 1 uM) incubated with 2 ug of KISS1R antibody, ANKRD31 antibody or control IgG overnight at 4 C, Protein A/G PLUS agarose beads, washed in TBS pH 7.6, Western blot for KISS1R, ANKRD31 and F-actin. On the technique in general: Immunoblotting shows a protein as a band on a membrane.

The target in experiment [2] is ANKRD31 (mouse (endogenous in primary Leydig cells)). The experiment is described as above.

Turning to “ANKRD31 (from UniProt A0A140LI88 1-1857)”, in experiment [1], the binding result was “binds”. On to “KISS1 receptor (from UniProt Q91V45 1-396)”, for which, in experiment [2], the binding entry is “binds”.
